Assay: Field evaluation of enhanced in situ bioremediation at Test Area North (sodium lactate injection, well TSF-05)

## CC(O)C(=O)[O-].[Na+] (centres unmarked) [sodium lactate]
All wells receiving significant lactate concentrations
  Reductive dechlorination of TCE to ethene: Enhanced reductive dechlorination of TCE to ethene was observed
Well TAN-26, FIG. 4
  TCE concentrations deep in the aquifer soon after addition began: dramatic increase
